Measured values: the supplement of paper PMC7877785
± gives the uncertainty stated by the source. Many entries were measured with a wide error.

Assay: self-splicing fitness, log relative to wild type (ln ratio); higher = more splicing; Tetrahymena group I intron in knt gene, E. coli kanamycin selection, DiMSum; sequences stand for … in CUCUCU…GGAGGGAAAAGUUAUCAGGCAUGCACCUGGUAGCUAGUCUUUAAACCAAUAGAUUGCAUCGGUUUAAAAGGCAAGACCGUCAAAUUGCGGGAAAGGGGUCAACAGCCGUUCAGUACCAAGUCUCAGGGGAAACUUUGAGAUGGCCUUGCAAAGGGUAUGGUAAUAAGCUGACGGACAUGGUCCUAACCACGCAGCCAAGUCCUAAGUCAACAGAUCUUCUGUUGAUAUGGAUGCAGUUCACAGACUAAAUGUCGGUCGGGGAAGAUGUAUUCUUCUCAUAAGAUAUAGUCGGACCUCUCCUUAAUGGGAGCUAGCGGAUGAAGUGAUGCAACACUGGAGCCGCUGGGAACUAAUUUGUAUGCGAAAGUAUAUUGAUUAGUUUUGGAGUACUCGUGGUCG
Summary of the method: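 Library with all eight P1ex-region intron nucleotides randomised, intron inside the knt kanamycin-resistance gene on pET-22b(+), in E. coli BL21(DE3). Cells grew overnight at 37°C or 30°C on LB agar with or without 25 μg/mL kanamycin (plus 100 μg/mL carbenicillin, 50 μM IPTG, 0.2% rhamnose), in six replicate transformations. Pooled colonies were amplicon-sequenced on Illumina HiSeq 2500. DiMSum fitness is the error-weighted combination of wild-type-normalised replicate fold changes, kanamycin versus none.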

## GAGGAGCAAUAUUACGAUAG
30 °C
  self-splicing fitness (ln): -5.16 ± 1
37 °C
  self-splicing fitness (ln): -1.96 ± 0.85

## CUAUAGCAAUAUUACGAGAA
30 °C
  self-splicing fitness (ln): -2.12 ± 0.54
37 °C
  self-splicing fitness (ln): -2.02 ± 0.51

## GUUCAGCAAUAUUACGAAAC
30 °C
  self-splicing fitness (ln): -1.48 ± 0.23
37 °C
  self-splicing fitness (ln): -0.734 ± 0.22

## UGAUAGCAAUAUUACGGAAC
30 °C
  self-splicing fitness (ln): -3.88 ± 1.1

## GUUGAGCAAUAUUACGUACG
30 °C
  self-splicing fitness (ln): -2.57 ± 0.39
37 °C
  self-splicing fitness (ln): -2.31 ± 0.45

## AACGAGCAAUAUUACGAUCC
37 °C
  self-splicing fitness (ln): -2.9 ± 1.1

## CUCUAGCAAUAUUACGGCAA
37 °C
  self-splicing fitness (ln): -4.41 ± 0.51

## UUCAAGCAAUAUUACGAAGC
30 °C
  self-splicing fitness (ln): -3.51 ± 0.6
37 °C
  self-splicing fitness (ln): -1.81 ± 0.62

## CAUGAGCAAUAUUACGAGCC
37 °C
  self-splicing fitness (ln): -1.8 ± 0.68

## GCGAAGCAAUAUUACGACUU
30 °C
  self-splicing fitness (ln): -1.4 ± 0.1
37 °C
  self-splicing fitness (ln): -0.741 ± 0.12

## CUUUAGCAAUAUUACGCGAG
37 °C
  self-splicing fitness (ln): -3.68 ± 0.72

## CGCUAGCAAUAUUACGGACC
37 °C
  self-splicing fitness (ln): -1.29 ± 0.51

## UCGAAGCAAUAUUACGAAUC
30 °C
  self-splicing fitness (ln): -2.42 ± 1.2
37 °C
  self-splicing fitness (ln): -2.16 ± 0.64

## UCAGAGCAAUAUUACGAAGA
30 °C
  self-splicing fitness (ln): -1.36 ± 0.74

## UCUUAGCAAUAUUACGAUUC
37 °C
  self-splicing fitness (ln): -2.77 ± 0.75

## GAGGAGCAAUAUUACGCCUC
30 °C
  self-splicing fitness (ln): -3.13 ± 0.63

## CUUAAGCAAUAUUACGCAUC
30 °C
  self-splicing fitness (ln): -4 ± 1

## UGACAGCAAUAUUACGAAGU
30 °C
  self-splicing fitness (ln): -3.26 ± 0.2
37 °C
  self-splicing fitness (ln): -2.91 ± 0.28

## CAGGAGCAAUAUUACGCCUC
37 °C
  self-splicing fitness (ln): -2.54 ± 1.1

## GGUGAGCAAUAUUACGGAGG
37 °C
  self-splicing fitness (ln): -2.59 ± 0.55

## CAGAAGCAAUAUUACGCUAC
37 °C
  self-splicing fitness (ln): -0.075 ± 0.55

## GUGGAGCAAUAUUACGACUA
30 °C
  self-splicing fitness (ln): -1.03 ± 0.71

## UCGUAGCAAUAUUACGGGCU
30 °C
  self-splicing fitness (ln): -3.31 ± 1

## CUAAAGCAAUAUUACGCUAA
37 °C
  self-splicing fitness (ln): -3.82 ± 1

## AGUUAGCAAUAUUACGUCAC
30 °C
  self-splicing fitness (ln): -3.73 ± 0.6

## CUAUAGCAAUAUUACGCAAG
30 °C
  self-splicing fitness (ln): -3.11 ± 0.2
37 °C
  self-splicing fitness (ln): -2.22 ± 0.18

## CACUAGCAAUAUUACGGCCC
30 °C
  self-splicing fitness (ln): -2.79 ± 0.57

## CUAUAGCAAUAUUACGAUCG
30 °C
  self-splicing fitness (ln): -0.256 ± 0.075
37 °C
  self-splicing fitness (ln): 0.439 ± 0.1

## GUGAAGCAAUAUUACGCAUC
30 °C
  self-splicing fitness (ln): -2.02 ± 0.87

## AUCGAGCAAUAUUACGAGGC
30 °C
  self-splicing fitness (ln): -3.17 ± 0.64

## CUCUAGCAAUAUUACGACAA
30 °C
  self-splicing fitness (ln): -3.54 ± 0.74
37 °C
  self-splicing fitness (ln): -2.35 ± 0.28

## ACGGAGCAAUAUUACGAAAG
37 °C
  self-splicing fitness (ln): -1.05 ± 0.54

## UUCAAGCAAUAUUACGAGCA
30 °C
  self-splicing fitness (ln): -1.01 ± 0.1
37 °C
  self-splicing fitness (ln): -0.0614 ± 0.12

## UUGGAGCAAUAUUACGCUGC
30 °C
  self-splicing fitness (ln): -1.96 ± 1.2
37 °C
  self-splicing fitness (ln): -2.34 ± 0.58

## AGAGAGCAAUAUUACGGGCC
30 °C
  self-splicing fitness (ln): -1.85 ± 0.65
37 °C
  self-splicing fitness (ln): -2.28 ± 0.78

## UCUUAGCAAUAUUACGCUUA
30 °C
  self-splicing fitness (ln): -2.97 ± 0.52

## GCUGAGCAAUAUUACGAGAA
30 °C
  self-splicing fitness (ln): -1.8 ± 0.55
37 °C
  self-splicing fitness (ln): -2.18 ± 0.56

## AGCAAGCAAUAUUACGUUUA
30 °C
  self-splicing fitness (ln): -2.1 ± 0.13
37 °C
  self-splicing fitness (ln): -1.96 ± 0.15

## GGUCAGCAAUAUUACGUGUU
30 °C
  self-splicing fitness (ln): -0.208 ± 0.047
37 °C
  self-splicing fitness (ln): 0.537 ± 0.063

## GCUGAGCAAUAUUACGCUAC
30 °C
  self-splicing fitness (ln): -2.59 ± 0.63

## UAAGAGCAAUAUUACGGUUU
30 °C
  self-splicing fitness (ln): -3.48 ± 0.24
37 °C
  self-splicing fitness (ln): -1.85 ± 0.23

## CUGUAGCAAUAUUACGGCCA
30 °C
  self-splicing fitness (ln): -2.13 ± 0.63
37 °C
  self-splicing fitness (ln): -2 ± 0.66

## UCGGAGCAAUAUUACGAAGG
37 °C
  self-splicing fitness (ln): -2.21 ± 0.63

## UUUGAGCAAUAUUACGAUGC
30 °C
  self-splicing fitness (ln): -4.71 ± 0.51

## CAGAAGCAAUAUUACGACCA
37 °C
  self-splicing fitness (ln): -3.62 ± 0.52

## CUGGAGCAAUAUUACGCAUU
37 °C
  self-splicing fitness (ln): -2.03 ± 1.1

## CAUCAGCAAUAUUACGCGCU
30 °C
  self-splicing fitness (ln): -4.89 ± 0.51

## CCCUAGCAAUAUUACGCUUG
30 °C
  self-splicing fitness (ln): -3.94 ± 0.42
37 °C
  self-splicing fitness (ln): -2.18 ± 0.28

## UCACAGCAAUAUUACGACUU
30 °C
  self-splicing fitness (ln): -3.28 ± 0.2
37 °C
  self-splicing fitness (ln): -1.65 ± 0.12

## GGUCAGCAAUAUUACGAAUG
30 °C
  self-splicing fitness (ln): -0.0371 ± 0.078
37 °C
  self-splicing fitness (ln): -0.989 ± 0.1

## CCGUAGCAAUAUUACGCUCA
30 °C
  self-splicing fitness (ln): -4.56 ± 0.51

## GUUUAGCAAUAUUACGUUUA
30 °C
  self-splicing fitness (ln): -2.69 ± 0.23
37 °C
  self-splicing fitness (ln): -0.853 ± 0.17

## ACUGAGCAAUAUUACGCCGU
30 °C
  self-splicing fitness (ln): -4.62 ± 1

## CACGAGCAAUAUUACGACAA
30 °C
  self-splicing fitness (ln): -4.27 ± 0.52

## AGAGAGCAAUAUUACGAUAC
30 °C
  self-splicing fitness (ln): -3.35 ± 0.8
37 °C
  self-splicing fitness (ln): -1.26 ± 0.74

## UCGCAGCAAUAUUACGCCUC
30 °C
  self-splicing fitness (ln): -5.02 ± 0.72

## AUGGAGCAAUAUUACGAUCU
30 °C
  self-splicing fitness (ln): -1.43 ± 0.59

## GAGUAGCAAUAUUACGCGCU
30 °C
  self-splicing fitness (ln): -4.44 ± 1

## CCCUAGCAAUAUUACGCACC
30 °C
  self-splicing fitness (ln): -3.32 ± 0.76
